Source: PubChem BioAssay AID2685 (National Center for Advancing Translational Sciences (NCATS), 2010)
Some of the results follow. Shown are side measurements of this screen, not its main read-out; they come without a call. Most of these compounds were active or inconclusive in the main read-out, so they are no random draw. Potencies come from curve fits of mixed quality, noted in brackets.

Assay: qHTS Assay for Lipid Storage Modulators in Drosophila S3 Cells;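 as to cell number change: cells counted by Cell Tracker Red CMTPX staining in the red channel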
Settings: BODIPY lipid droplet fluorescence, 18-24 h; for cell number change: measured here: cell count max response, cells fed with added oleic acid
Summary of the method: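 Drosophila S3 cells loaded with oleic acid (400 uM, as added) and compounds at several concentrations; lipid droplets imaged by 488-nm laser-scanning cytometry, 500–530 nm intensity and object ratio to cell channel. Percent activity normalized to 20 uM Triacsin C.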

[1] = measured here: lipid fluorescence (Fed channel) AC50, cells fed with added oleic acid
[2] = measured here: cell number channel AC50, cells fed with added oleic acid

SMILES: CCC(C)(C)C1CCC(NC(=O)c2ccc(S(=O)(=O)N3CCOCC3)cc2)CC1 (stereo not given)
- cell number change: 2.39%
- AC50 [1]: 29.1 µM [falling, single point]

SMILES: COc1cccc(-c2nnc(N)o2)c1
- cell number change: 22.7%
- AC50 [1]: 9.2 µM [rising, partial curve]

SMILES: COC(=O)Cn1cnc2c(nnn2-c2cccc(OC)c2)c1=O
- cell number change: 42.3%
- AC50 [2]: 13 µM [rising, partial curve, poor fit]
- AC50 [1]: 0.58 µM [rising, single point]

SMILES: Cn1c(=O)oc2cc(S(=O)(=O)N3CCCC(C(=O)Nc4nccs4)C3)ccc21 (stereo not given)
- cell number change: -12.2%
- AC50 [1]: 0.231 µM [rising, full curve, poor fit]

SMILES: CN(C)C(=O)c1nc2ccccc2s1
- cell number change: -2.17%
- AC50 [1]: 6.51 µM [rising, partial curve, poor fit]

SMILES: CN(C)S(=O)(=O)c1cccc(NC(=S)NN=C(Cc2ccccc2)Cc2ccccc2)c1
- cell number change: 6.9%
- AC50 [2]: 6.51 µM [rising, single point]
- AC50 [1]: 0.0164 µM [rising, partial curve, poor fit]

SMILES: COc1ccc(NC(=S)NCCC2=CCCCC2)cc1OC
- cell number change: 20.6%

SMILES: COc1ccc(C)cc1NC(=O)c1nnn(Cc2cc(C)ccc2C)c1N
- cell number change: -7.13%
- AC50 [1]: 0.058 µM [rising, full curve, poor fit]

SMILES: Cc1cc(C)nc(NS(=O)(=O)c2ccc(NC(=O)c3ccc4c(c3)OCCO4)cc2)n1
- cell number change: 3.46%

SMILES: CCc1cc2c(=O)n(CCCOC)c(SCC(=O)Nc3oc(C)c4c(C)n[nH]c(=O)c34)nc2s1
- cell number change: 78.3%
- AC50 [2]: 1.46 µM [rising, full curve]

SMILES: CCc1ccc(C(O)(CC)C(CN2CCOCC2)c2ccccc2)cc1 (stereo not given)
- cell number change: -27.7%
- AC50 [1]: 18.4 µM [falling, single point]

SMILES: CCCN(CC(=O)Nc1ccccc1OC)C(=O)Cc1ccc2c(c1)CCC2
- cell number change: -11.8%
- AC50 [1]: 0.116 µM [falling, full curve, poor fit]

SMILES: O=C(O)c1ccccc1OCc1ccccc1Br
- cell number change: -27.4%
- AC50 [1]: 29.1 µM [falling, single point]

SMILES: CCOC(=O)[C@@H]1[C@H]2COc3cc(OC)ccc3[C@H]2N2C(=O)N(c3cccc(Cl)c3)C(=O)[C@@]12C
- cell number change: 39.8%
- AC50 [1]: 29.1 µM [rising, single point]

SMILES: COc1ccc(OC)c(N(CC(=O)Nc2cccnc2)S(C)(=O)=O)c1
- cell number change: 60.5%
- AC50 [2]: 16.4 µM [rising, partial curve]

SMILES: Cc1ccc(/C=N/N2CCN(c3ccccn3)CC2)o1
- AC50 [1]: 0.0058 µM [rising, full curve, poor fit]

SMILES: CCc1ccc(-n2c(=O)c3c(C)c(C(=O)N(C)C)sc3n(CC(=O)NCc3ccco3)c2=O)cc1
- cell number change: -15.7%

SMILES: CC(=O)O[C@]1(C(C)=O)CC[C@H]2[C@@H]3C=C(C)C4=CC(=O)CC[C@@H]4[C@H]3CC[C@@]21C
- cell number change: 9.43%
- AC50 [1]: 0.517 µM [rising, full curve]

SMILES: O=C1CC(c2cccc(F)c2)SC(N(c2ccccc2)c2ccccc2)=N1 (stereo not given)
- cell number change: 165%
- AC50 [2]: 23.1 µM [rising, partial curve]

SMILES: COc1ccc(CNC(=O)COC(=O)C2=COCCO2)cc1
- cell number change: 26.7%
- AC50 [1]: 1.46 µM [rising, full curve]

SMILES: O=c1[nH]c2ccc(NC(=S)NC3CCCCC3)cc2[nH]1
- AC50 [1]: 0.58 µM [falling, single point]

SMILES: CNS(=O)(=O)c1cccc(C(=O)OC2CCOC2=O)c1 (stereo not given)
- cell number change: -18.1%

SMILES: Cc1nc2ccc(NC(=O)c3cccc(S(=O)(=O)N4CC(C)OC(C)C4)c3)cc2s1 (stereo not given)
- AC50 [2]: 0.82 µM [rising, full curve, poor fit]

SMILES: CCOc1ccccc1/C=N/Nc1cc(C)nc2ccc(C)cc12
- cell number change: -12.6%

SMILES: Cc1ccnc(NC(=O)c2cc3ccccc3o2)c1
- cell number change: -14.7%
- AC50 [1]: 0.058 µM [rising, full curve, poor fit]

SMILES: CCCOC(=O)C1[C@H]2C(=O)N(CCCOC)C[C@]23C=C[C@H]1O3 (stereo not given in full)
- cell number change: 10.4%
- AC50 [1]: 0.103 µM [rising, full curve, poor fit]

SMILES: Cn1c(N)c(C(=O)CSc2nnc(Cc3cccs3)n2C2CC2)c(=O)n(C)c1=O
- cell number change: 23.9%
- AC50 [1]: 2.06 µM [rising, full curve]

SMILES: COc1ccc(NC(=O)CCCC(=O)O)cc1Cl
- AC50 [1]: 0.116 µM [rising, full curve]

SMILES: O=C(O)CN(c1ccccn1)S(=O)(=O)c1ccc(Cl)cc1
- cell number change: -15.3%
- AC50 [2]: 1.16 µM [falling, full curve, poor fit]

SMILES: CCOc1nc(-c2ccncc2)nc2ccccc12
- cell number change: -38.2%
- AC50 [2]: 29.1 µM [falling, single point]
- AC50 [1]: 29.1 µM [falling, single point]

SMILES: COc1ccc(C2CC(c3cccs3)=NN2C(=O)COC(=O)c2cc3ccccc3cc2O)cc1OC (stereo not given)
- cell number change: 15.3%
- AC50 [1]: 0.058 µM [rising, full curve, poor fit]

SMILES: CCCn1c(N)c(N(CCOC)C(=O)C(C)Oc2ccc(F)cc2)c(=O)[nH]c1=O (stereo not given)
- cell number change: -23.3%

SMILES: COc1ccc(C(=O)OCC(=O)Nc2c(C)cccc2C)cc1
- cell number change: 40.3%
- AC50 [2]: 5.8 µM [rising, partial curve]

SMILES: CCSc1nnc(NC(=O)c2cc(-c3ccccc3O)n[nH]2)s1
- cell number change: 6.79%

SMILES: O=C(O)c1ccc(CNC(=O)c2ccc(C(F)(F)F)cc2)cc1
- cell number change: -53.6%
- AC50 [2]: 29.1 µM [falling, single point]

SMILES: Cc1c(-c2ccccc2)oc2nc3c(c(=O)n(C)c(=O)n3C)n12
- cell number change: -46.4%
- AC50 [2]: 7.31 µM [falling, partial curve]

SMILES: CCC1(C)SC(N)=NN1C(C)=O (stereo not given)
- cell number change: -1.55%

SMILES: NC(=O)C1CCN(C(=O)CSc2ccccn2)CC1
- cell number change: -33.1%
- AC50 [2]: 0.082 µM [falling, full curve, poor fit]
- AC50 [1]: 6.51 µM [falling, single point]

SMILES: O=C(COc1ccc(Br)cc1Br)NC(=O)NC1CCCC1
- cell number change: -31.2%
- AC50 [2]: 32.6 µM [falling, single point]
- AC50 [1]: 32.6 µM [falling, single point]

SMILES: Cc1cc(NC(=O)c2cc(-c3ccccc3)on2)no1
- cell number change: 13.2%
- AC50 [1]: 29.1 µM [falling, single point]

SMILES: O=C(NC1C/C(=N/O)c2cc3c(cc21)OCO3)C(F)(F)F (stereo not given)
- cell number change: 9.62%
- AC50 [1]: 2.31 µM [rising, full curve, poor fit]
